Assay: Drug uptake in lysosomes of human Fa2N-4 cells assessed as inhibition of LysoTracker Red fluorescence after 30 mins
Assay type: ADME, cell-based, Lysosome
Conditions: Fa2N-4, 0.5 h

`CC(C)NCC(O)COc1cccc2ccccc12` (stereo unspecified) [PROPRANOLOL] gave an IC50 of 92 µM.

— ChEMBL document CHEMBL3525994, “Lysosomal sequestration (trapping) of lipophilic amine (cationic amphiphilic) drugs in immortalized human hepatocytes (Fa2N-4 cells)” (Drug Metab Dispos, 2013)
